We go through 58 compounds from the supplement of paper PMC12578635.

This is one part of the list. Rule as the data show it: active = 150% or more and inactive = the rest. Most values come without repeats; read them as rough.

In the experiment the test system is Staphylococcus aureus JE2-lux inside RAW 264.7 macrophages. Briefly: intracellular bacterial bioluminescence relative to DMSO vehicle; higher = higher intracellular bacterial metabolic activity. To be noted: 10 µM; treatment time 4 h; gentamicin 50 µg/ml.
Consider `Cc1c(-c2cc(C(=O)O)c3cc(Br)ccc3n2)nnn1-c1ccccc1`, for which the intracellular bacterial bioluminescence was inactive: 118%. The figure for `CCOC(=O)Cn1cnc2nn(-c3ccccc3)cc2c1=O` is active: 214%; for `CCS(=O)(=O)c1ccc(C(=O)Nc2ccc3sc(C)nc3c2)cc1` it is inactive: 109%. Under `CCN(CC)C(=O)Cn1cc(C(=O)C(=O)NCc2ccc3c(c2)OCO3)c2ccccc21` stands inactive: 124%; under `O=C(NCCn1nnn(-c2ccccc2)c1=O)c1ccc(=O)[nH]n1`, inactive: 101%. The figure for `COc1ccc(/C=C2\Oc3c(ccc(O)c3CN3CCCC3)C2=O)c(OC)c1` is inactive: 114%; for `COC(=O)c1ccc(C(=O)NC(=S)Nc2sc3c(c2C#N)CCCCC3)cc1` it is inactive: 105%. For the compound `Nc1cc(Cl)c([N+](=O)[O-])cc1OCc1ccccc1`, the intracellular bacterial bioluminescence was inactive: 49.9%. Under `O=C(Oc1c(CN2CCOCC2)cc(Cl)c2cccnc12)c1cccc([N+](=O)[O-])c1` stands inactive: 107%; under `Cc1ccc(CSc2oc(-c3ccco3)nc2S(=O)(=O)c2ccccc2)cc1`, inactive: 125%; under `COc1ccc(-c2nc3sc(C)nn3c2NC2CCCCC2)cc1`, inactive: 106%. Under `COc1cccc(NCc2nc3[nH]c(C)c(Cc4ccccc4)c(=O)n3n2)c1` stands inactive: 91.8%. As for `COC(=O)NC(=O)c1c(NC(=O)c2cc3ccccc3oc2=O)sc(C)c1C`, the intracellular bacterial bioluminescence is inactive: 81%. The figure for `Cc1ccc(/C=C2/SC(=S)N(c3ccc(C(=O)O)c(O)c3)C2=O)o1` is inactive: 102%; for `Oc1ccc(Br)c(C2Nc3ccc(F)cc3[C@H]3OCC[C@@H]23)c1` (stereo partly drawn) it is inactive: 108%.

As for `Cc1ccccc1C1CC(=O)c2c(C)nc(N)nc2C1` (stereo not drawn), the intracellular bacterial bioluminescence was inactive: 107%. The figure for `O=C1CC(NS(=O)(=O)c2cccs2)CN1c1ccc(Cl)cc1` (stereo not drawn) is inactive: 107%; for `CCS(=O)(=O)c1ccc(C(=O)Nc2nc3c(Cl)c(Cl)ccc3s2)cc1` it is active: 152%; for `CCCNC(=O)Cn1nc(-c2ccc(F)cc2)c2cnc3cc(OC)c(OC)cc3c21` it is inactive: 66.7%. `CCc1ccccc1NC(=O)Cn1c(C)cc(=O)n2nc(-c3cccc(C)c3)nc12`: the intracellular bacterial bioluminescence is inactive: 91.4%. Turning to `Cc1cc(=O)n2c3ccccc3n(CC(O)CNc3ccc(C(C)C)cc3)c2c1C#N` (stereo not drawn), the intracellular bacterial bioluminescence was inactive: 26.8%. Under `CCn1cc(C(=O)Nc2ccc(OC(F)(F)F)cc2)c2nn(-c3ccccc3)c(=O)c-2c1` stands inactive: 111%; under `Cc1nc2ccccc2c(=O)n1-c1cccc(NC(=O)c2cc([N+](=O)[O-])cc([N+](=O)[O-])c2)c1`, inactive: 124%; under `CCC(Oc1ccc(F)cc1)C(=O)Nc1noc(-c2ccccc2C)n1` (stereo not drawn), inactive: 82.6%. The figure for `NC1=NN(c2ccccc2)C(=O)/C1=N\Nc1ccc2c(c1)OCO2` is inactive: 93.4%.

Take `Cc1cc(NC(=O)CSc2nnc3ccccn23)no1`: the intracellular bacterial bioluminescence was inactive: 107%. Under `Cc1ccc(-c2nsc(NC(=O)COc3ccccc3)n2)s1` stands inactive: 80.3%. Regarding `COc1ccccc1N1CCN(c2cc(=O)n(-c3ccc(Br)cc3)c(=O)[nH]2)CC1`, the intracellular bacterial bioluminescence was inactive: 103%.

For `CCN1CCN(CCNC(=O)c2cc3n(n2)CCCN(Cc2ccccc2)C3=O)CC1`, the intracellular bacterial bioluminescence was inactive: 115%. The figure for `Cc1ccc2sc(NNC(=O)c3ccc(S(=O)(=O)N4CC(C)OC(C)C4)cc3)nc2c1C` (stereo not drawn) is inactive: 112%; for `COC(=O)c1ccsc1NC(=O)COc1ccc(Cl)cc1Cl` it is inactive: 103%. The figure for `CCOC(=O)c1c(-c2ccc(F)cc2)csc1NC(=O)CN1CCOCC1` is inactive: 97.8%; for `CCN(CC)S(=O)(=O)c1ccc(C(=O)Nc2ncnc3sccc23)cc1` it is inactive: 85.5%. Consider `Cc1cccc(NC(=O)C(C)n2c(C)nc3onc(C)c3c2=O)c1` (stereo not drawn), for which the intracellular bacterial bioluminescence is inactive: 84.5%.

With `CCOC(=O)c1c(NC(=O)CSc2nc(N)cc(=O)[nH]2)sc(C)c1C`, the intracellular bacterial bioluminescence is inactive: 132%. Under `CCCc1cc(O)n2nc(-c3cccc(OC)c3)cc2n1` stands inactive: 107%.

Regarding `O=C(c1cccn2c(-c3ccc(F)cc3)nnc12)N1CCC(Cc2ccccc2)CC1`, the intracellular bacterial bioluminescence was inactive: 110%.

Regarding `Cn1c(=O)[nH]c(=O)c2c1nc(Br)n2CCSc1nc2ccccc2s1`, the intracellular bacterial bioluminescence was inactive: 103%. The figure for `COc1ccc(-c2noc(NCc3cccnc3)n2)cc1` is inactive: 111%; for `Cc1ccc(Cl)cc1NC(=O)Cn1c(=O)c2nnc(CCC(=O)NC(C)C)n2c2ccccc21` it is inactive: 74.5%. Under `Cc1ccc2cc3c(N)c(C(=O)N4CCN(c5ccccc5)CC4)sc3nc2c1` stands inactive: 79.6%; under `O=C(CN1C(=O)COc2ccccc21)NNC(=O)Nc1ccccc1F`, inactive: 111%; under `Cc1cc(C)cc(NC(=O)CSc2nc3c(c(=O)[nH]2)CN(C(C)C)CC3)c1`, inactive: 102%.

Consider `COc1ccccc1CNC(=O)CSc1nc(=O)[nH]cc1C`, for which the intracellular bacterial bioluminescence was inactive: 109%. Under `Cc1ccc(NC(=O)Cn2c3c(sc2=O)C2c4cc([N+](=O)[O-])ccc4OCC2CS3)cc1` (stereo not drawn) stands inactive: 35.6%; under `O=C(Nc1ccc(Cl)cc1)N1CCc2nc(N3CCCCC3)ncc2C1`, inactive: 66.3%. Under `O=C(Nc1ccc2ccccc2c1)c1cc2ccccc2oc1=O` stands inactive: 112%. Under `Fc1cccc(Cl)c1CSc1nnc2ccc(-c3ccccn3)nn12` stands inactive: 116%. For the compound `CCn1c(SCC(=O)NCc2ccc(F)cc2)nc2c(c1=O)SC(C)C2` (stereo not drawn), the intracellular bacterial bioluminescence was inactive: 79.6%. The figure for `O=C(NCC(c1cccs1)S(=O)(=O)c1cccs1)Nc1ccc(Cl)cc1` (stereo not drawn) is inactive: 90.6%; for `COc1ccc(C)c2s/c(=N\C(=O)C3COc4ccccc4O3)n(C)c12` (stereo not drawn) it is inactive: 75.1%; for `COc1ccc2nc(Nc3sc4c(c3C(N)=O)CCC(C)C4)sc2c1` (stereo not drawn) it is inactive: 72.8%.

In the case of `CSC1=C(C#N)C(c2ccncc2)C(C(=O)Nc2ccccc2)=C(C)N1` (stereo not drawn), the intracellular bacterial bioluminescence was inactive: 80.2%. Under `O=C(CCCn1c(=S)[nH]c2cc3c(cc2c1=O)OCO3)N1CCN(C(=O)c2ccco2)CC1` stands inactive: 80.6%; under `Cn1c(=O)n(CCCO)c(=O)c2c1nc1n(-c3ccccc3F)c(-c3ccccc3)cn21`, inactive: 76.5%; under `Cc1cccc(NC(=O)C(=O)NCCCO)c1C`, inactive: 91.5%.

For `Cc1cc(C)c2nc3sc(C(=O)N4CCCCCC4)c(N)c3cc2c1`, the intracellular bacterial bioluminescence is inactive: 74.7%. Under `Cc1nc2nc(-c3ccccc3)nn2c(Sc2ccc(N)cc2)c1C` stands inactive: 101%.
